Test results: publication doi:10.1101/2023.04.26.538370
No constants are given. Whether binding was seen depends on the method and setting. Binding seen in cells or lysates may run through a third protein. Some entries that bind do so weakly or less than the wild type. For some assays here: Tags and fused reporters may be left off the sequences shown.

Protein sequences, listed by entry. Tags and fused reporters are not part of them.
UniProt P20357: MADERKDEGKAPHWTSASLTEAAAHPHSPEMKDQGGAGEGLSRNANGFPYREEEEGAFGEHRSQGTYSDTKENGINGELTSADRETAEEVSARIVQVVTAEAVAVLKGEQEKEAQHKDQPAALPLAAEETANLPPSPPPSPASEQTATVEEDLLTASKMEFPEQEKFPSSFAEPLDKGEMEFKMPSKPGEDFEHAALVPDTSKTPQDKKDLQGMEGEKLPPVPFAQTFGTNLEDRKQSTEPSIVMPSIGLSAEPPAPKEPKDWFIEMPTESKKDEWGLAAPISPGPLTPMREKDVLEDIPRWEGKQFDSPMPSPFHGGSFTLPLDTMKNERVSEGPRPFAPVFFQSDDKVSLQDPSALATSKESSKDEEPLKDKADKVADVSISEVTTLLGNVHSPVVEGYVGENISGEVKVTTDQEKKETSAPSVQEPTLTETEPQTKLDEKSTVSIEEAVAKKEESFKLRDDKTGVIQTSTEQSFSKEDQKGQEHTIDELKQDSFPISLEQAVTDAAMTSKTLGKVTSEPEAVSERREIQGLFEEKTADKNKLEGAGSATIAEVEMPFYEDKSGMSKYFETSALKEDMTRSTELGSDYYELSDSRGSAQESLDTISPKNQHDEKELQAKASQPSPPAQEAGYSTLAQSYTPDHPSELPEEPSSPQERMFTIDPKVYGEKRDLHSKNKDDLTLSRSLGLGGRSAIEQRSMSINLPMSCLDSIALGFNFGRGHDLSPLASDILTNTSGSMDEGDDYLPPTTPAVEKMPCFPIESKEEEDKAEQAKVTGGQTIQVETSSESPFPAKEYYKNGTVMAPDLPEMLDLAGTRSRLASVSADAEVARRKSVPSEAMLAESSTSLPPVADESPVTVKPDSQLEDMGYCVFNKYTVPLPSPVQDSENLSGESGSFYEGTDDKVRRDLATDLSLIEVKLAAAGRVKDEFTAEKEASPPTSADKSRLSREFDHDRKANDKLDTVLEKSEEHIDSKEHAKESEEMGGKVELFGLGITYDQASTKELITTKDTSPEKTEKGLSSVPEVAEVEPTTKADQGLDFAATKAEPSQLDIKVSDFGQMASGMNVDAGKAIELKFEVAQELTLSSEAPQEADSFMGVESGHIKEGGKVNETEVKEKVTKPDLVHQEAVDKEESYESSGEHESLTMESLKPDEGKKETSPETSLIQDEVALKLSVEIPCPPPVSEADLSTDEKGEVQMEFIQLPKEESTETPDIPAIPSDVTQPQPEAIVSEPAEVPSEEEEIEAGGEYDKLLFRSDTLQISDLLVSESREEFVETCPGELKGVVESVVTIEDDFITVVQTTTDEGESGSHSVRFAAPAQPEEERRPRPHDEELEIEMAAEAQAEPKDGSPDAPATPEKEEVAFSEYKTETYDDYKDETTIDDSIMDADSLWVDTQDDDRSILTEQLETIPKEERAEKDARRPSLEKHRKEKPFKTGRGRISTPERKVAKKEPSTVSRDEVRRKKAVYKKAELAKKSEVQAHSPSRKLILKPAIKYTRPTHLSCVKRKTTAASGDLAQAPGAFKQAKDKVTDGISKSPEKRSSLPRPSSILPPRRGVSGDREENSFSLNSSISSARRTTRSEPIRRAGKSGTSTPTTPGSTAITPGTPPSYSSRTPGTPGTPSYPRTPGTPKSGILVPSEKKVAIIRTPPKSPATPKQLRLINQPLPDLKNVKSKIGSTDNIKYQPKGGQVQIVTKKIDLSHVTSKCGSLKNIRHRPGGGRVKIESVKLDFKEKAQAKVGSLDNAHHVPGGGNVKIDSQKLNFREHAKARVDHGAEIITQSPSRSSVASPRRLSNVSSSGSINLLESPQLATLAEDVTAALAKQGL
UniProt Q9JHU4: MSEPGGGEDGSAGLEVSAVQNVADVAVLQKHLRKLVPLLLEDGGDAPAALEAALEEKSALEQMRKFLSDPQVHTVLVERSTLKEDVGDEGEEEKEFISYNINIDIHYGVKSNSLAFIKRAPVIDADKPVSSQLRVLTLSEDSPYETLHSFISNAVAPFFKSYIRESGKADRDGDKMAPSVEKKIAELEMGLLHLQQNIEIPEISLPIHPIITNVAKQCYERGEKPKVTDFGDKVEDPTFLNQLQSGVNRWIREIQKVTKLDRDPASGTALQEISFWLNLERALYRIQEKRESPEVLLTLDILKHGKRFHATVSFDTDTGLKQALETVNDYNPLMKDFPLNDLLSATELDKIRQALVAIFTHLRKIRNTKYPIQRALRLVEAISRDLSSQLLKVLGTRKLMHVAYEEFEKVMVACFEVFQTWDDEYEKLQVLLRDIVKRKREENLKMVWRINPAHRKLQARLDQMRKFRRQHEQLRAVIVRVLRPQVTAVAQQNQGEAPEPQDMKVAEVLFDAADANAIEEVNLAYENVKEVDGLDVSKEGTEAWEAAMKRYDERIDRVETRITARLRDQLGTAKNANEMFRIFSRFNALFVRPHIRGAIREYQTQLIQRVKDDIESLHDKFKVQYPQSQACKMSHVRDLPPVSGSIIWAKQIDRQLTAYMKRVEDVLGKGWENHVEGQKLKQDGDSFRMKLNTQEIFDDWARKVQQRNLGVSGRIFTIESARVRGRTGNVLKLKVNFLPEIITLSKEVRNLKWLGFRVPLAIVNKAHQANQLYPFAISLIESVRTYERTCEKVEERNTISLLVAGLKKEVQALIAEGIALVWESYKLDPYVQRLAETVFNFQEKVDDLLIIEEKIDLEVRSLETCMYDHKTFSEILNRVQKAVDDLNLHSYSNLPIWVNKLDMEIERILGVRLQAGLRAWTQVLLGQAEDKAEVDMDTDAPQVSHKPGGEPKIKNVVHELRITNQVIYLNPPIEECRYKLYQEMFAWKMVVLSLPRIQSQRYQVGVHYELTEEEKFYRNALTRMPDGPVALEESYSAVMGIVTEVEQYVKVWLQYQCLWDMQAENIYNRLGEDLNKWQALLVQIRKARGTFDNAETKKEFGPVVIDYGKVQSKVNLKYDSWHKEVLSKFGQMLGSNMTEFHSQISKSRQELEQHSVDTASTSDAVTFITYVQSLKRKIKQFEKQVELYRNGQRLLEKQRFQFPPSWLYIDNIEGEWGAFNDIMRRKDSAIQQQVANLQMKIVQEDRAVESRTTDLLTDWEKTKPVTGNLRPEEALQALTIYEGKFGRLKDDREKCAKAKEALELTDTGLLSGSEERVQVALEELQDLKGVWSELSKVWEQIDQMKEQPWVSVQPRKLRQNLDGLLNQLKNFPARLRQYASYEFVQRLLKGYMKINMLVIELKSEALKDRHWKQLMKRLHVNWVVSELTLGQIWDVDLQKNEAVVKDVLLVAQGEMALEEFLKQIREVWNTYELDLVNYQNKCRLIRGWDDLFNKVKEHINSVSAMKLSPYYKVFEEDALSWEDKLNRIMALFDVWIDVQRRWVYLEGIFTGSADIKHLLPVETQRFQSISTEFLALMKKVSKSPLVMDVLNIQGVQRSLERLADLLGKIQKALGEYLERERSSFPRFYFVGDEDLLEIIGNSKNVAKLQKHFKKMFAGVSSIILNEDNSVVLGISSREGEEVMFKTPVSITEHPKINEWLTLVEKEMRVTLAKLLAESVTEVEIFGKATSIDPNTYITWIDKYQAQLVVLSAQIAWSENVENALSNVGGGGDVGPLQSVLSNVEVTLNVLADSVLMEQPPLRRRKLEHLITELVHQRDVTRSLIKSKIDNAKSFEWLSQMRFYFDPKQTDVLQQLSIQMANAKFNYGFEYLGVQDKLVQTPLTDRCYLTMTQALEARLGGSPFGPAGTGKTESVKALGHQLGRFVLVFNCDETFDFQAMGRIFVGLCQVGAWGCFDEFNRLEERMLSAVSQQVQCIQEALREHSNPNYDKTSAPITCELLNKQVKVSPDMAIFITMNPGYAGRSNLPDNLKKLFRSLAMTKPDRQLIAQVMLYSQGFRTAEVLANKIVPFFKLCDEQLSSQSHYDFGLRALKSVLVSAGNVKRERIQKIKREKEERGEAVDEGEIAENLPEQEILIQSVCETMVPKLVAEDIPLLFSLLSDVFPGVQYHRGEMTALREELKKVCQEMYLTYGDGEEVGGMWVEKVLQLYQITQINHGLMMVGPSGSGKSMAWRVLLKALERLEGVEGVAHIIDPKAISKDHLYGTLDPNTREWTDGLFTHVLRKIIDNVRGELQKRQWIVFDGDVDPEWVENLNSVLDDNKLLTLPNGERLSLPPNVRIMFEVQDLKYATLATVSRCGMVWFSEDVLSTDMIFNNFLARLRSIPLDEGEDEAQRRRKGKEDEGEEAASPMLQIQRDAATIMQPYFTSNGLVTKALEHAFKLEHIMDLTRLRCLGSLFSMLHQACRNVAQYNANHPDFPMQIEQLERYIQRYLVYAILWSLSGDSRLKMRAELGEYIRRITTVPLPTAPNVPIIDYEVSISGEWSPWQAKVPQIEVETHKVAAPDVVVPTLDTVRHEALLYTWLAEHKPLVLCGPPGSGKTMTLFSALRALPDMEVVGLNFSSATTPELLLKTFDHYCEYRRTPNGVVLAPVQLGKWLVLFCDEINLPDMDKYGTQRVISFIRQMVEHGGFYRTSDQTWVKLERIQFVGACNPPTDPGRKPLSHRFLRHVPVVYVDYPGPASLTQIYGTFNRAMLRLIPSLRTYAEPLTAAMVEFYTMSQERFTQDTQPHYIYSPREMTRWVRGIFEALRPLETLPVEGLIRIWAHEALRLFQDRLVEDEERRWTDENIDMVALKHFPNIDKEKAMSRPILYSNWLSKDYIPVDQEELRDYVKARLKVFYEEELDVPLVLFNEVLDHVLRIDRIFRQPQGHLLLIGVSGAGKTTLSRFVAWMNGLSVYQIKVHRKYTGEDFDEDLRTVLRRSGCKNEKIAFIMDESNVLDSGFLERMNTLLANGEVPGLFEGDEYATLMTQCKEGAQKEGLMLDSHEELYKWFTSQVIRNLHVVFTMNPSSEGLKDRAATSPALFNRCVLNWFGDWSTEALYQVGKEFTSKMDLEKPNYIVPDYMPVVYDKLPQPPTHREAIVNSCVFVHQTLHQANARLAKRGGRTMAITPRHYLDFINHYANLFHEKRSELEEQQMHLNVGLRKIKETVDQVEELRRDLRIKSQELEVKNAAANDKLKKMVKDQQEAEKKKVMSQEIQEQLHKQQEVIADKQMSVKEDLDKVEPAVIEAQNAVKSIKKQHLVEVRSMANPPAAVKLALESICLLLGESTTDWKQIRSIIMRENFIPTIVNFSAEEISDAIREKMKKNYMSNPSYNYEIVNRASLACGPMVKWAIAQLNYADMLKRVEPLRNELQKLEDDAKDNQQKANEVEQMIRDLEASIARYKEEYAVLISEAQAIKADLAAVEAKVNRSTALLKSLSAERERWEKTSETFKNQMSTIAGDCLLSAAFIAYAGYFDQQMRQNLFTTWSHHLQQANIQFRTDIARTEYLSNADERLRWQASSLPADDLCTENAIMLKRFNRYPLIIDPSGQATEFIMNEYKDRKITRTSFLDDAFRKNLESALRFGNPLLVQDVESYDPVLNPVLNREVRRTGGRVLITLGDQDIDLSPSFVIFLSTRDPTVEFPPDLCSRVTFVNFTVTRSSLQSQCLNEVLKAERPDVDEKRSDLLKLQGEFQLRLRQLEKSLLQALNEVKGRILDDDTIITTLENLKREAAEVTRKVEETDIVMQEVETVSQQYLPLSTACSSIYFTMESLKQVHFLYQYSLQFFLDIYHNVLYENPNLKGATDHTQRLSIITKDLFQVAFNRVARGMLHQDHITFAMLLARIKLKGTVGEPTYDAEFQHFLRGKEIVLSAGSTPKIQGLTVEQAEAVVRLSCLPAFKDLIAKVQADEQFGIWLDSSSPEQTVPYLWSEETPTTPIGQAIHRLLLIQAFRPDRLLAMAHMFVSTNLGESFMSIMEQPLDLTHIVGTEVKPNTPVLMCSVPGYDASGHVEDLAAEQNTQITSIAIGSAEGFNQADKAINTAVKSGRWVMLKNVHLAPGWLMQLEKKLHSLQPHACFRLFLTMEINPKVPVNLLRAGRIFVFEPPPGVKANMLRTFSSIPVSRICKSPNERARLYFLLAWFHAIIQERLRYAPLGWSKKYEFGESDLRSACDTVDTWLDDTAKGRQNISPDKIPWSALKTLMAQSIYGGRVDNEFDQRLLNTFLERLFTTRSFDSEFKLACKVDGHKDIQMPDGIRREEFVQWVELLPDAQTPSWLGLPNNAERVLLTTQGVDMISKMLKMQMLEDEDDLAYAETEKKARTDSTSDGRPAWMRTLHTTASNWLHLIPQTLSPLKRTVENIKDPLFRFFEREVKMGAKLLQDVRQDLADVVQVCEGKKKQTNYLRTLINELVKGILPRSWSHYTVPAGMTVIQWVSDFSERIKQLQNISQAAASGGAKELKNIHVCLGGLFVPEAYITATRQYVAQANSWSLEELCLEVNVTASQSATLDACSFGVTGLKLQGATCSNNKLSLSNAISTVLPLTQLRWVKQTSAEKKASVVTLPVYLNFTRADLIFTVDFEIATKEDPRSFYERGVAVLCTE

What was measured:
[1] = target: T1, GFP-MAP2C, wild type (pAcGFP-His-MAP2C), expressed in HEK293 cells (human) (UniProt P11137); assay: co-IP
T1 sequence: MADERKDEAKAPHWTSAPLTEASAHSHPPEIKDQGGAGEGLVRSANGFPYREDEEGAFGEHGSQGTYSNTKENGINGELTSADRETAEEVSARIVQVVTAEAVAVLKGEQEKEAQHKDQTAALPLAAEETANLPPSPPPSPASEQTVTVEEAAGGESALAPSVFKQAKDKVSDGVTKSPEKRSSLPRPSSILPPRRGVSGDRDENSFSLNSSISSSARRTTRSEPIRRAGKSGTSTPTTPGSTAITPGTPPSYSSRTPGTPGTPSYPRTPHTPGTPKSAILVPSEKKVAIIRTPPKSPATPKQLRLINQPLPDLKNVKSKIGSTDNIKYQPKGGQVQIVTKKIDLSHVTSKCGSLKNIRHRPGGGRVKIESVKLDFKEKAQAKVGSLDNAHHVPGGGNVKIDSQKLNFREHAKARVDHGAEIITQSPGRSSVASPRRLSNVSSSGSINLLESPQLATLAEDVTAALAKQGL

[2] = target: MAP2, endogenous, long isoforms (mouse brain) (mouse (endogenous in mouse brain)) (UniProt P20357); assay: co-IP

| binding [1] | binding [2] | Substance |
| --- | --- | --- |
| binds |  | DHC1 (cytoplasmic Dynein heavy chain) expressed from plasmid in HEK293 cells (from UniProt Q14204 1-4646) |
|  | binds | cytoplasmic Dynein heavy chain (DHC1), endogenous (mouse brain) (from UniProt Q9JHU4 1-4644) |
